Results taken from US20110071150A1 (priority 2009, published 2011).

System: Jurkat IL-2 Production
Assay: Jurkat IL-2 Production Assay
Assay type: cell-based
Settings: Homo sapiens, Jurkat cell (ATCC), 18-20 h incubation, PHA 5 μg/mL with 1% FBS, or PMA/Ionomycin with 30% FBS (table does not say which)
Method: Jurkat IL-2 Production Assay
Cell: Jurkat cell (ATCC) was grown in RPMI 1640 with 10% FBS and 1% penicillin/streptomycin. The cell density was kept at 1.2-1.8×10^6/mL in culture flask before seeding into culture plate, and the cell density in the plate was 0.5×10^6/[…]/well.
Culture media: RPMI 1640 with 1% FBS or 30% FBS for high serum assay.
Test compound: serial dilution was done in 100% DMSO, and intermediate dilution was done with RPMI 1640 medium with 1% FBS. The DMSO final concentration in culture well was 0.25%.
Stimulant: PHA (Sigma#L9017-10MG) was used for the assay with 1% FBS in culture medium, and added after 10 minutes exposure of cell to compound/DMSO. The PHA final concentration in culture well was 5 μg/mL. PMA (Sigma# P-8139 5MG)/Ionomycin (Sigma# 10634-5MG) was used for the assay with 30% FBS in culture medium, and added at same time point as the 1% FBS culture assay. The final concentration of PMA was 50 ng/mL, and Ionomycin final concentration was 500 ng/mL.
Incubation: at 37° C. with 5% CO2 and 95% humidity for 18 h˜20 h.
IC50: IC50 was calculated with the data analysis software XLfit4, General Pharmacology model 251.

IC50: 32 nM
Structure (SMILES): Cn1nc(-c2cnc(N)nc2)cc1-c1ccc2[nH]c(-c3c(F)cccc3F)cc2c1 [Example 107, 5-{5-[2-(2,6-Difluoro-phenyl)-1H-indol-5-yl]-1-methyl-1H-pyrazol-3-yl}-pyrimidin-2-ylamine]
